Results deposited as PubChem BioAssay AID652272 (Drosophila RNAi Screening Center, 2013).

Assay: 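Genes whose knock-down decreases or increases Hedgehog reporter output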 (primary screen)
System: Drosophila clone 8 (Cl8) cells
Knock-down reagent: long dsRNA against Drosophila genes
Detection: 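Firefly light from a Hedgehog-responsive ptc promoter reporter and Renilla reference light, both read on a plate reader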
Direction: firefly Hh reporter signal: higher = more ptc reporter light; Renilla reference signal: higher = more Renilla control light
Rule for the call: 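Hit when the z-score averaged over two replicates is under -2 or over +3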
Calls: active = hit: reporter lowered or raised; inactive = not a hit
In all, the deposit lists about 21,000 reagents; below is an unselected part of those that have a named target and a result. Of all reagents, 503 (2.4%) were called active. 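Raw plate light values, not normalised; calls rest on replicate z-scores that were not deposited; hits include reporter decreases as well as increases.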 Not stated in the record: the amount of reagent, the time to read-out.

| gene | amplicon | firefly Hh reporter signal, replicate 1 | firefly Hh reporter signal, replicate 2 | firefly Hh reporter signal, replicate 3 | Renilla reference signal, replicate 1 | Renilla reference signal, replicate 2 | Outcome |
| --- | --- | --- | --- | --- | --- | --- | --- |
| sr | DRSC13284 | 57060 | 1.70e5 | – | 12347 | 4518 | inactive |
| sr | DRSC17067 | 3.82e5 | 30266 | – | 21748 | 982 | inactive |
| CG14341 | DRSC00371 | 1.82e5 | 1.14e5 | – | 4072 | 3141 | inactive |
| COX6AL2 | DRSC10082 | 81170 | 1.30e5 | – | 2628 | 3603 | inactive |
| LManIV | DRSC03222 | 1.14e5 | 44256 | – | 2679 | 4802 | inactive |
| Mms19 | DRSC12188 | 1.32e5 | 1.02e5 | – | 4504 | 3944 | inactive |
| CG8461 | DRSC16424 | 2.12e5 | 99730 | – | 8252 | 3634 | inactive |
| CG5348 | DRSC06933 | 95812 | 50025 | – | 2755 | 3616 | inactive |
| CG9917 | DRSC20218 | 92131 | 78960 | – | 1909 | 1153 | inactive |
| ATPsynC | DRSC15236 | 66803 | 1.00e5 | – | 1642 | 3168 | inactive |
| Spt7 | DRSC19997 | 1.11e5 | 1.05e5 | – | 2099 | 2683 | inactive |
| Ir8a | DRSC17817 | 76264 | 1.21e5 | – | 2260 | 4374 | inactive |
| Ir8a | DRSC17869 | 76304 | 1.67e5 | – | 2150 | 6189 | inactive |
| U2af38 | DRSC00796 | 1.10e5 | 68533 | – | 3494 | 2088 | inactive |
| CG5516 | DRSC15826 | 1.29e5 | 1.75e5 | – | 2722 | 24048 | inactive |
| Actn3 | DRSC14106 | 87005 | 80377 | – | 2203 | 2272 | inactive |
| Jhbp5 | DRSC14240 | 65952 | 93073 | – | 1869 | 6408 | inactive |
| RpS26 | DRSC03420 | 35863 | 14578 | – | 1746 | 1530 | active |
| CG10748 | DRSC09797 | 31683 | 48242 | 40506 | 4832 | 3034 | inactive |
| grim | DRSC11352 | 53440 | – | – | 2507 | 1914 | inactive |
| CG7656 | DRSC10900 | 1.27e5 | 71313 | – | 5462 | 3174 | inactive |
| CG12535 | DRSC17838 | 76497 | 2.27e5 | – | 2041 | 9381 | inactive |
| Src42A | DRSC04865 | 64724 | 74451 | – | 2448 | 2820 | inactive |
| Src42A | DRSC04915 | 81610 | 66147 | – | 1553 | 5548 | inactive |

Just “firefly Hh reporter signal, replicate 2” (3 entries from above):
CG14341 [DRSC00371] = 1.14e5
COX6AL2 [DRSC10082] = 1.30e5
LManIV [DRSC03222] = 44256
